Values quoted from earlier work in article PMC9585582 (ACS Bio & Med Chem Au, 2022).

Experiments:
purified microtubules = conditions: cited from earlier work
fixed cells = conditions: cited from earlier work

COc1cc2c(c(OC)c1OC)-c1ccc(OC)c(=O)cc1[C@@H](NC(C)=O)CC2 [colchicine]
Kd (purified microtubules): 24 nM | IC50 (fixed cells): 22 nM
